Results from the supplement of paper PMC12819154, “High-throughput peptide-centric local stability assay extends protein–ligand identification to membrane proteins, tissues and bacteria” (Nature Structural & Molecular Biology, 2025).
The other results are listed elsewhere or left out. Most entries show no effect beyond the scatter of the controls.

Sequences of proteins named here, by UniProt entry; tags and fusion partners are left off. A change or cut given only in a name is not applied to a line headed by its entry.
UniProt Q8BXA1: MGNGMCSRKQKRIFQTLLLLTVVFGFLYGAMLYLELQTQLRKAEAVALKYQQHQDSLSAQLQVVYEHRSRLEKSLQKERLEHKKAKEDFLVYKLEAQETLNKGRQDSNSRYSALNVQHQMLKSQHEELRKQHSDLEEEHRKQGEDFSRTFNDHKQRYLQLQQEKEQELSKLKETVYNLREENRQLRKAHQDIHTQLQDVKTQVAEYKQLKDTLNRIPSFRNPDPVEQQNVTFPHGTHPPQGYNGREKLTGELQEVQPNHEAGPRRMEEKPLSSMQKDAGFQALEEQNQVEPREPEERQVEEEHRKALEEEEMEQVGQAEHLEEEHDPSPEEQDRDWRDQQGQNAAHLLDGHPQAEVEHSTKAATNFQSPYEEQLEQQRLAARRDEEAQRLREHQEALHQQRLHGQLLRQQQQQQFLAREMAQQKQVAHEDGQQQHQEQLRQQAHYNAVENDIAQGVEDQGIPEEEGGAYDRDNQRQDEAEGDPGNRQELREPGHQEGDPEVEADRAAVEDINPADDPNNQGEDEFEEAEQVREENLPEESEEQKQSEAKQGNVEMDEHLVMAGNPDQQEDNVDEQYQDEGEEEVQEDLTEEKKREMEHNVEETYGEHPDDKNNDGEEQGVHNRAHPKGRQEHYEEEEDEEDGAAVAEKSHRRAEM
UniProt Q8BWQ6, whole entry: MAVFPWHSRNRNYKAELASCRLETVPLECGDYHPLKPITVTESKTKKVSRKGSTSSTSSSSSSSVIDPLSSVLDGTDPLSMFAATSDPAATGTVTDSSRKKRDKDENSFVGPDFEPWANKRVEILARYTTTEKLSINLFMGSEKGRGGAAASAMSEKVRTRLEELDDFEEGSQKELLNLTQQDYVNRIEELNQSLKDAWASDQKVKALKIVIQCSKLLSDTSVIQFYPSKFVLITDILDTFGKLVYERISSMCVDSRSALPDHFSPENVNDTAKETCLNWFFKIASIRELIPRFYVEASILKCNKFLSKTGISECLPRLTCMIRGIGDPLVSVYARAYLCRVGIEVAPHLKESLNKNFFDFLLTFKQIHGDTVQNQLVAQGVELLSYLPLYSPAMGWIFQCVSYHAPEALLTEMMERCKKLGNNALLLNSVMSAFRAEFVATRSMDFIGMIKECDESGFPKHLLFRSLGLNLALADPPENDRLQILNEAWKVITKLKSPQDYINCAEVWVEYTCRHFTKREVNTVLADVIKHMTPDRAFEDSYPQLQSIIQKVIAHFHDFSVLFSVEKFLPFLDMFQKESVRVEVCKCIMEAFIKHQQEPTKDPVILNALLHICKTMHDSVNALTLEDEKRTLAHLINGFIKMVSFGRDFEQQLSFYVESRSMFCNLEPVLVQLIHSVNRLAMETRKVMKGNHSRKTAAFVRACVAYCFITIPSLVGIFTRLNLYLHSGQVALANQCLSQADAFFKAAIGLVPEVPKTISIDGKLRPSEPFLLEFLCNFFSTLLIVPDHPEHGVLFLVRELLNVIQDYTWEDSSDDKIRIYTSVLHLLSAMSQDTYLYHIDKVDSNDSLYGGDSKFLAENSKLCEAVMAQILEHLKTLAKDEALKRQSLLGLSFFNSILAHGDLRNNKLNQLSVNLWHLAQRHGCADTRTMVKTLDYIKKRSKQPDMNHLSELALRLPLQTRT
UniProt Q8C165: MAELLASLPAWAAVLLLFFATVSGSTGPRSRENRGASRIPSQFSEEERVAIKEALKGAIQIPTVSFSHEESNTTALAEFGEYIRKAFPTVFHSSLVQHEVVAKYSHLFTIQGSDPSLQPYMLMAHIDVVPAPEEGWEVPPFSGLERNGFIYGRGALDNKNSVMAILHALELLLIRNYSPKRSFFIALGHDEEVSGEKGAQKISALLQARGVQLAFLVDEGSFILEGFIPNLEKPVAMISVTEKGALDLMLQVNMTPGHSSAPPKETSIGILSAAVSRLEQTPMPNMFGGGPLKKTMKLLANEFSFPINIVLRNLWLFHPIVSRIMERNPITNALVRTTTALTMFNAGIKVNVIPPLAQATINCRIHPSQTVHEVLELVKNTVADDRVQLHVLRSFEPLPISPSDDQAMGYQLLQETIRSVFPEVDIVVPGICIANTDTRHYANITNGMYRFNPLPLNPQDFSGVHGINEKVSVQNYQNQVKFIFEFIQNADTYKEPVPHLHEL
UniProt Q8C8R3, whole entry: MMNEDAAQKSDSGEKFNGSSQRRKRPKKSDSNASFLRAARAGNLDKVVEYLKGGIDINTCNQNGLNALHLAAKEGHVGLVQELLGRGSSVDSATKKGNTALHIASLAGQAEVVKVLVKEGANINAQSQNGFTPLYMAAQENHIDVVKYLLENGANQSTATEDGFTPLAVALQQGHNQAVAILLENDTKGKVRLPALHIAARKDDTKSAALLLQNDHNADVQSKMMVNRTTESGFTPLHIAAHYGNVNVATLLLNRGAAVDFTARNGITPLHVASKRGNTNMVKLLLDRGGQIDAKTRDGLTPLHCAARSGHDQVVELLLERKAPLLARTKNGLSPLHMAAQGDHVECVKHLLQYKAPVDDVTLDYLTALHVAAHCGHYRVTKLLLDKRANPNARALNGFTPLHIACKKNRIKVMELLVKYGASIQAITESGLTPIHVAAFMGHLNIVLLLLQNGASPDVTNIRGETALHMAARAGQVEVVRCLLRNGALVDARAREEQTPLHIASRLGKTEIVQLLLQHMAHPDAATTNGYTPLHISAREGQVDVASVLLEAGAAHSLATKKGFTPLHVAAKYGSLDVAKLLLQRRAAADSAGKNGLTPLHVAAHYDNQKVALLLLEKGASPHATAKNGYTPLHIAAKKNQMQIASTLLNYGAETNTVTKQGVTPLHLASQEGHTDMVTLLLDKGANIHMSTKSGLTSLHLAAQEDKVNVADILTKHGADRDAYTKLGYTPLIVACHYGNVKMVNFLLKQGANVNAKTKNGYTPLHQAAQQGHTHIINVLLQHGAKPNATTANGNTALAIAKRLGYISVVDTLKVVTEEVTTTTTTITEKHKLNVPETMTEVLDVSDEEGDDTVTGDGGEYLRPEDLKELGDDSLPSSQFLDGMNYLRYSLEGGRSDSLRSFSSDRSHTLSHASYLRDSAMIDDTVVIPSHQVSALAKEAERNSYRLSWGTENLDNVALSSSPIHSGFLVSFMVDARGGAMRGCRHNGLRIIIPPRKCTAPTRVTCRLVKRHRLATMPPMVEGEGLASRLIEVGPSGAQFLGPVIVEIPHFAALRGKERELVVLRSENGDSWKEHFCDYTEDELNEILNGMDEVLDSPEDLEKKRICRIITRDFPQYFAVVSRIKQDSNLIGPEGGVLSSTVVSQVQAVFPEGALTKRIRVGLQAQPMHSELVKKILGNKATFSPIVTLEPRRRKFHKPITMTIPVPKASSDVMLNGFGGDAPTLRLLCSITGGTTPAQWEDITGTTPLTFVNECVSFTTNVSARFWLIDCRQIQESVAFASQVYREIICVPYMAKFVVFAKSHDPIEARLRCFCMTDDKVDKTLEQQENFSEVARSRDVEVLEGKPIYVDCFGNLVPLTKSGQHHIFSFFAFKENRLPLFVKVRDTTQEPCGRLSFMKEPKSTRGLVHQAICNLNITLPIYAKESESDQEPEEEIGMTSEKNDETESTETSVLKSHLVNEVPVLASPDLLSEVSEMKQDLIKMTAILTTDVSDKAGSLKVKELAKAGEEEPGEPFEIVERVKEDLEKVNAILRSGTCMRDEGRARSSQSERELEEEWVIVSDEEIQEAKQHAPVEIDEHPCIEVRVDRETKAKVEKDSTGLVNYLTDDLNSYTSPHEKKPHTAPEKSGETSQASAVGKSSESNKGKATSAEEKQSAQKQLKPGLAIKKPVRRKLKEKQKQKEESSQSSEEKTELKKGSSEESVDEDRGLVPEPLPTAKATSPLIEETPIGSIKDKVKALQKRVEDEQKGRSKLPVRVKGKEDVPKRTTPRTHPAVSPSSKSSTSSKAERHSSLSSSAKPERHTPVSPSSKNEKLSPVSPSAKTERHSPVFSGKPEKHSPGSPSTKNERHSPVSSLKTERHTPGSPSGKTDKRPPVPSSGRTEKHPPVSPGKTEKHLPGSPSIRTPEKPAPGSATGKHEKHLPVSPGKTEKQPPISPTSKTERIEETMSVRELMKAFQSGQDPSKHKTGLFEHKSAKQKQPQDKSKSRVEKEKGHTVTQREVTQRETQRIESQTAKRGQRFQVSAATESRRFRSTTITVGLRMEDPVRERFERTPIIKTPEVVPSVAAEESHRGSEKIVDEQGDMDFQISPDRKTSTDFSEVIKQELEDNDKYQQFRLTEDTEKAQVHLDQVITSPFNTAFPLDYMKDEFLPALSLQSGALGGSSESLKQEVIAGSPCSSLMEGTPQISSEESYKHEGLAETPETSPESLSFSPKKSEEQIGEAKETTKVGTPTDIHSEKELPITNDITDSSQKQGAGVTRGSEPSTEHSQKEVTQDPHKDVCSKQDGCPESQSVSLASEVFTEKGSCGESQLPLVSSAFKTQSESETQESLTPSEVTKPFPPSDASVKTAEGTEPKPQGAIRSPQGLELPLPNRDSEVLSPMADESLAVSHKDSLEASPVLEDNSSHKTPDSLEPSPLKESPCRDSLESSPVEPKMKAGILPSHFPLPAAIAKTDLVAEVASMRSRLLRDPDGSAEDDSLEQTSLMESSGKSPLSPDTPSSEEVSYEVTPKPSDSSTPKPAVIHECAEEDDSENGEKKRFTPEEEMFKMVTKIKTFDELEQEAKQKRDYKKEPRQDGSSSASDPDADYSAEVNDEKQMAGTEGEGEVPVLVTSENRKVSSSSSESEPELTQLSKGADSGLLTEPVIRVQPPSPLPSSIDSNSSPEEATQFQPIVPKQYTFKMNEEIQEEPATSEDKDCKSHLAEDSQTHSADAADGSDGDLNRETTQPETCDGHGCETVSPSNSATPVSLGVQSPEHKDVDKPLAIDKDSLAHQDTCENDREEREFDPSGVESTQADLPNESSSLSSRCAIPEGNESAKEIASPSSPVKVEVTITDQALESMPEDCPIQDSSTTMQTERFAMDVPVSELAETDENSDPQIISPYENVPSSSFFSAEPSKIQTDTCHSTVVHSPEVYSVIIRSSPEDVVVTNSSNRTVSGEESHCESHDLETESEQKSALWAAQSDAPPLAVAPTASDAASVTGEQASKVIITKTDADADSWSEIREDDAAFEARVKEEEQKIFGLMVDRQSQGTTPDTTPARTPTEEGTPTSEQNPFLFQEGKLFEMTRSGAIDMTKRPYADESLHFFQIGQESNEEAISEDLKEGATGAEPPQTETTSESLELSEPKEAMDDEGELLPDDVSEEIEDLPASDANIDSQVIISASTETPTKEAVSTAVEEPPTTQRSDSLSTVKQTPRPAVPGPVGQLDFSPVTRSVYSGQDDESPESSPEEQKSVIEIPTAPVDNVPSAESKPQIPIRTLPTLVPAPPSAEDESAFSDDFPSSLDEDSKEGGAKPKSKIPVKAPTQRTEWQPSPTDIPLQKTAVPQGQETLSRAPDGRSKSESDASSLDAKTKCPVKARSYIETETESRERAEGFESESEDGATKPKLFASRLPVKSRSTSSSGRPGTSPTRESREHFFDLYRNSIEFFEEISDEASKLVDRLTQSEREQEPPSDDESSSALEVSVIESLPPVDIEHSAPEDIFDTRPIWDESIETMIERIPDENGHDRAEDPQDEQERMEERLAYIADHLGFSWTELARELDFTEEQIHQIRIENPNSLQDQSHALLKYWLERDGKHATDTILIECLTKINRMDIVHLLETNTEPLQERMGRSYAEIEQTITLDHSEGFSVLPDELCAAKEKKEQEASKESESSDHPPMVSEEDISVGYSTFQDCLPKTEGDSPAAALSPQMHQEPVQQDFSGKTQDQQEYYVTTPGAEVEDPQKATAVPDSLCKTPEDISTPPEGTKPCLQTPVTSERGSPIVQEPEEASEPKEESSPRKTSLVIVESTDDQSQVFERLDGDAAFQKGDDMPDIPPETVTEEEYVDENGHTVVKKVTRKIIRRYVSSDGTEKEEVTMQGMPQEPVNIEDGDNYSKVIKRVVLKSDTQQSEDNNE
UniProt Q8BWG8: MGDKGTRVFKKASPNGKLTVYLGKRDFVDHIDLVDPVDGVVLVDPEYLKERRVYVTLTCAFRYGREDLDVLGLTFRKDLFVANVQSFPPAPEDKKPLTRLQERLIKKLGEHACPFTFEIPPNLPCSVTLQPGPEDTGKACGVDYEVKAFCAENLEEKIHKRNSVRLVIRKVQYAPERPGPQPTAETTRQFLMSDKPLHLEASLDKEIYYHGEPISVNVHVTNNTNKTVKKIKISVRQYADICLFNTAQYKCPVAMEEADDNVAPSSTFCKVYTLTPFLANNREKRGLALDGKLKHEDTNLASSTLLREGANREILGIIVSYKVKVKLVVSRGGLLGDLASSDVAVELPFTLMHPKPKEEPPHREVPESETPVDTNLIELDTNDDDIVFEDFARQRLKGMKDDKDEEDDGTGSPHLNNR

Each target was assayed with CN[C@@H]1C[C@H]2O[C@@](C)([C@@H]1OC)n1c3ccccc3c3c4c(c5c6ccccc6n2c5c31)C(=O)NC4 [staurosporine] (assay: log2 fold change of tryptic peptide abundance, ligand vs vehicle (limited proteolysis) (log2 ratio); higher = more trypsin-susceptible (destabilized)). Conditions: ligand concentration: 20 uM; sample: mouse liver crude lysate; replicate design: treated separately.
In the case of “UniProt Q8BXA1 (peptide sequence: QVEEEHR, peptide start residue: 298)”, the log2 fold change is reported as -0.804.
“UniProt Q8BWQ6 (peptide sequence: SMDFIGMIK, peptide start residue: 444)” was tested, and the log2 fold change was 0.0909.
In the case of “UniProt Q8C165 (peptide sequence: NTVADDRVQLHVLR, peptide start residue: 380)”, the log2 fold change is reported as -0.244.
Target “UniProt Q8C8R3 (peptide sequence: VALLLLEK, peptide start residue: 725)” has a log2 fold change of 0.169.
“UniProt Q8BWG8 (peptide sequence: ACGVDYEVK, peptide start residue: 139)” was tested, and the log2 fold change was 0.114.
